According to publication PMC9584950:
No constants are given. Whether binding was seen depends on the method and setting. In cells and extracts the contact can be indirect. Some entries that bind do so weakly or less than the wild type.

Chains of the proteins cited; added tags and fusions are not shown. Residues count along the entry.
UniProt P40763: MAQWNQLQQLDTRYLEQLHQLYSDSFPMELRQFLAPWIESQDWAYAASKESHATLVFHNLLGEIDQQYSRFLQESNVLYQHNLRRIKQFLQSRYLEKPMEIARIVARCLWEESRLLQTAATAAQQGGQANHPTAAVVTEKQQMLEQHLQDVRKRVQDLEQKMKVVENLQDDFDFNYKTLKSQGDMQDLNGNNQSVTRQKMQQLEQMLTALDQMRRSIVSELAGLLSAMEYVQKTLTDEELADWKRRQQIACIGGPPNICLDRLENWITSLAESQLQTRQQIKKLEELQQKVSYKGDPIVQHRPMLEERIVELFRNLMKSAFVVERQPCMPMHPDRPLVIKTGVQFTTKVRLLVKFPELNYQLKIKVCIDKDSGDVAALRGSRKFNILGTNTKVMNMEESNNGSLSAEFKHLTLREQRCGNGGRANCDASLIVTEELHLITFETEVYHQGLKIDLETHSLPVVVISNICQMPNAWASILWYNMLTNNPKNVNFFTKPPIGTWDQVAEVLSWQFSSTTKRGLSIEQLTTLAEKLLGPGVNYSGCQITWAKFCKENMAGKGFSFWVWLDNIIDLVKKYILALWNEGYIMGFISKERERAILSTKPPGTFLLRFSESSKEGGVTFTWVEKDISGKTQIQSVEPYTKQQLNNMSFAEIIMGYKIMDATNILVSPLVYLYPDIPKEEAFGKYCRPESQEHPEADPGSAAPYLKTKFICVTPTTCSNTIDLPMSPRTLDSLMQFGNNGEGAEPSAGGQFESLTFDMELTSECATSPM
UniProt P23284, residues 34-216: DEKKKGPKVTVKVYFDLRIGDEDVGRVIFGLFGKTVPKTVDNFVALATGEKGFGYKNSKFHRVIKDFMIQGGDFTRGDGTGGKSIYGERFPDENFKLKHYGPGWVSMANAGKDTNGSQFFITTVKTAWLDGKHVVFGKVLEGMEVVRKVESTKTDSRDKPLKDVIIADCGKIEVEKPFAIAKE
UniProt O14543: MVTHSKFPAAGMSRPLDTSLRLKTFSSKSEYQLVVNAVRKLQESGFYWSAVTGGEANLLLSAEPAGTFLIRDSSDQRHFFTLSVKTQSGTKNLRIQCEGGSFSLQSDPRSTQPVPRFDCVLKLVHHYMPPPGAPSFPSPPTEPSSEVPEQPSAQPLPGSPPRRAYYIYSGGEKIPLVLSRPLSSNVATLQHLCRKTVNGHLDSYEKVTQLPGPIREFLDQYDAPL

What was measured:
[1] = molecular target: Signal Transducer and Activator of Transcription 3 (human (endogenous in Caco-2)) (UniProt P40763); assay: co-IP; beads coated with STAT3 antibody or IgG; lysates of IL-6-treated Caco-2 cells with or without PVT1 knockdown; blot for CypB and SOCS3
[2] = molecular target: Cyclophilin B (human (endogenous in Caco-2)) (UniProt P23284); assay: co-IP; beads coated with CypB antibody or IgG; lysates of Caco-2 cells with or without IL-6; blot for STAT3 and pSTAT3 (Tyr705)

Row | binding [1] | binding [2] | Substance
1 | binds |  | Cyclophilin B (from UniProt P23284 34-216)
2 |  | binds | Signal Transducer and Activator of Transcription 3 (from UniProt P40763 1-770)
3 | binds |  | Suppressors Of Cytokine Signalling 3 (from UniProt O14543 1-225)
4 |  | binds | phosphorylated STAT3 (Tyr705) (from UniProt P40763 1-770)
